# Results from the supplement of paper PMC6411743.
# Amino acid sequences for entries named in this document (tags omitted). A change or cut given only in a name is not applied to a line headed by its entry.
# UniProt Q96JP5: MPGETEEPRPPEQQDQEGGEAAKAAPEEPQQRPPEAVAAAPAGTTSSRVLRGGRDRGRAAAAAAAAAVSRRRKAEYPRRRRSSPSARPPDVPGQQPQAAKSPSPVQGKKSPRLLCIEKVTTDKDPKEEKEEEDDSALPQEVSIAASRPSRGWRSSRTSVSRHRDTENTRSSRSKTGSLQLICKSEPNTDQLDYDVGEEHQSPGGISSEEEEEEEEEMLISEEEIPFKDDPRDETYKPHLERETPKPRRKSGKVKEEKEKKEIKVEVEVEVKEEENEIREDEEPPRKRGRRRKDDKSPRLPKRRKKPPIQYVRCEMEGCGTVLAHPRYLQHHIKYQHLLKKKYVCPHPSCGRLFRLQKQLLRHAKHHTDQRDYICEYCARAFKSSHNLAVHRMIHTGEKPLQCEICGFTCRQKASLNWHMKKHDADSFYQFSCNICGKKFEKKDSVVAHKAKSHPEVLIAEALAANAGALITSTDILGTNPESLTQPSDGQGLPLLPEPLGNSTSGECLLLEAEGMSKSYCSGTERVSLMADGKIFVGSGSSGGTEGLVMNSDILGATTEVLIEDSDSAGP
# UniProt Q96K49: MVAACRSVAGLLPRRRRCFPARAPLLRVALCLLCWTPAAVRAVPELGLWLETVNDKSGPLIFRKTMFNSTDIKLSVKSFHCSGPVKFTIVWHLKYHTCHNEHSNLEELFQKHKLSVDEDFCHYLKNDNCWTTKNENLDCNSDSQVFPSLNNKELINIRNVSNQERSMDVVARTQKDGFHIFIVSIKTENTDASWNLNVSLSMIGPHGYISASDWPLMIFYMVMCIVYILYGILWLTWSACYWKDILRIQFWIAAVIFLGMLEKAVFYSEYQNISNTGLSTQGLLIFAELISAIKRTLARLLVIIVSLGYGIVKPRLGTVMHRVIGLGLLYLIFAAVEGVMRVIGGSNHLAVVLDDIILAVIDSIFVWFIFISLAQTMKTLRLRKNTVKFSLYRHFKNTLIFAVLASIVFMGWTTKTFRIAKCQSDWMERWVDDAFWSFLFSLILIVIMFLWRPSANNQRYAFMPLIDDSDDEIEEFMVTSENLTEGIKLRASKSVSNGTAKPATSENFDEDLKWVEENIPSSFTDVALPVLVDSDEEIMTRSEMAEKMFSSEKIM
# UniProt Q96AG3: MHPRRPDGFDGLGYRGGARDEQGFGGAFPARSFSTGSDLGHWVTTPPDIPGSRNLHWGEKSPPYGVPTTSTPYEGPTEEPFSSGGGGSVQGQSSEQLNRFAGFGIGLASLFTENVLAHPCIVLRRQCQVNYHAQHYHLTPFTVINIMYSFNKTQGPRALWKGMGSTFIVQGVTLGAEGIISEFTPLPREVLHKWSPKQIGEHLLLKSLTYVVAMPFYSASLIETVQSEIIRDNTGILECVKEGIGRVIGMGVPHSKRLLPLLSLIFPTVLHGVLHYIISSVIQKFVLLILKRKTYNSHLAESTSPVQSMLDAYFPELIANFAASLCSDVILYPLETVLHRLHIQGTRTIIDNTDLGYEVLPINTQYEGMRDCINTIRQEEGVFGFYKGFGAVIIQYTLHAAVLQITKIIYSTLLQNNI
# UniProt Q96BP3: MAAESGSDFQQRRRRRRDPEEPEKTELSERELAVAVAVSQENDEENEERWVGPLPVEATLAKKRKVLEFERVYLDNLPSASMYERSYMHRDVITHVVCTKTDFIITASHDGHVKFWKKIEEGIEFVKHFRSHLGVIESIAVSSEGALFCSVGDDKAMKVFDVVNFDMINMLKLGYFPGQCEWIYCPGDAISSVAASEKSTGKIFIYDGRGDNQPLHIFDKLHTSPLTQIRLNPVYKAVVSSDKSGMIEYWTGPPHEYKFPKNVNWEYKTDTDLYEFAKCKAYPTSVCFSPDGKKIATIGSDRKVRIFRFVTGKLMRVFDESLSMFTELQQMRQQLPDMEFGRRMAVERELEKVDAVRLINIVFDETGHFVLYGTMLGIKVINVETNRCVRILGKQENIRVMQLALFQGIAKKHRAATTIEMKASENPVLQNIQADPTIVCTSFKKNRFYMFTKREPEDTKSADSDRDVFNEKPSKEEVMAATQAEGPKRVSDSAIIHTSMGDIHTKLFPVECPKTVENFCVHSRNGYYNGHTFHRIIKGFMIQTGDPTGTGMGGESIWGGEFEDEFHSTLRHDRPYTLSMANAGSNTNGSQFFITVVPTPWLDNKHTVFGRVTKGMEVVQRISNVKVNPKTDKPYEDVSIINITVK
# UniProt Q93100: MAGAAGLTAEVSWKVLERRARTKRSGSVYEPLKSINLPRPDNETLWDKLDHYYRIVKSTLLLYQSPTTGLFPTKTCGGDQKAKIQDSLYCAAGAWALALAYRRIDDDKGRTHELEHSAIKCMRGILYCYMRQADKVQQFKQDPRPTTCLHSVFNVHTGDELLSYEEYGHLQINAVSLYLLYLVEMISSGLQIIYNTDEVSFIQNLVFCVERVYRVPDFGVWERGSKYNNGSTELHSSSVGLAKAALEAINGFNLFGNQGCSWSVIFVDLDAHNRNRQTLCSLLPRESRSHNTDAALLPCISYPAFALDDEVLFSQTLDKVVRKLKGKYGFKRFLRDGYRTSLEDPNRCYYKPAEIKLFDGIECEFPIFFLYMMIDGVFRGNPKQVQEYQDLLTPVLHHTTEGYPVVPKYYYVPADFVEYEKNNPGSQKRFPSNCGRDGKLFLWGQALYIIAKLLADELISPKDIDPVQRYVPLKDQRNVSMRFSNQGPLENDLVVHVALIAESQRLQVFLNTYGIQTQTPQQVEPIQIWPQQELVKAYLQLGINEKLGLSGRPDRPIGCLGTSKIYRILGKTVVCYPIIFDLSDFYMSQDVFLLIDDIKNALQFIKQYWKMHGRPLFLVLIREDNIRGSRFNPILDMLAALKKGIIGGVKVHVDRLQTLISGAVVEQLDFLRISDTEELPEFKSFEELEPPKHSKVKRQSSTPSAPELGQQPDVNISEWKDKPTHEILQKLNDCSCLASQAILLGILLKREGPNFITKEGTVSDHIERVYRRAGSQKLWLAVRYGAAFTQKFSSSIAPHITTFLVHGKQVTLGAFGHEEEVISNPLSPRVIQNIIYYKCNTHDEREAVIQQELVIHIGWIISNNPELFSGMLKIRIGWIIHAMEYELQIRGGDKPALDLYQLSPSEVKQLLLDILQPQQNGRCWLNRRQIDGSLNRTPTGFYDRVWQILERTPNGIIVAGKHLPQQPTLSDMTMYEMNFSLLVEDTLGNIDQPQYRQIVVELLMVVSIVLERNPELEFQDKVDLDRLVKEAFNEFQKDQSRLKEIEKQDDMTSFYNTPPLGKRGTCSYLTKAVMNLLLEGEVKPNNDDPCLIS
# UniProt Q969H8: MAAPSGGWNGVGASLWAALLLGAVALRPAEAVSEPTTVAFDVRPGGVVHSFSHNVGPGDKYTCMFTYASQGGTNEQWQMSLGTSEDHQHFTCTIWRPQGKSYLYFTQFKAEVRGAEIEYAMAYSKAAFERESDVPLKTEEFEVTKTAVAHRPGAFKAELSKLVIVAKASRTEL
# UniProt Q96N64: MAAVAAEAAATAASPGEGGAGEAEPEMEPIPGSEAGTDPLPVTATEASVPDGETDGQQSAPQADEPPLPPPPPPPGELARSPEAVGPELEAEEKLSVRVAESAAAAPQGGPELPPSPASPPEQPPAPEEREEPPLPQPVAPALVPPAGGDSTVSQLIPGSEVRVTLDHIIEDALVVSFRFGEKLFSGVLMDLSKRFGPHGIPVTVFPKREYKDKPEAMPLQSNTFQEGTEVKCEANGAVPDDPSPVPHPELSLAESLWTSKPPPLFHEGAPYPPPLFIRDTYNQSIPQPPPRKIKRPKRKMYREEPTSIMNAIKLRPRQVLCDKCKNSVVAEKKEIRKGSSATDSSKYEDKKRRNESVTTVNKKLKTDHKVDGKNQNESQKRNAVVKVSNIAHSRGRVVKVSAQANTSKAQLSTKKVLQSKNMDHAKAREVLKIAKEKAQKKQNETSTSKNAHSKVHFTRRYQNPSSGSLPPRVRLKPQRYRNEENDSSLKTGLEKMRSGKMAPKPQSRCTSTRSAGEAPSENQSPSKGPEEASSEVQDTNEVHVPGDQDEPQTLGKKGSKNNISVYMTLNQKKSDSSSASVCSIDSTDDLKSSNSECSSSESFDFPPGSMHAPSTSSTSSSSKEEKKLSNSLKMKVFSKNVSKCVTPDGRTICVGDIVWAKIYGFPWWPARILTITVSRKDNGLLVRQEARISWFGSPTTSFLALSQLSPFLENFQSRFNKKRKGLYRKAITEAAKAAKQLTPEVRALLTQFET
# UniProt Q93073: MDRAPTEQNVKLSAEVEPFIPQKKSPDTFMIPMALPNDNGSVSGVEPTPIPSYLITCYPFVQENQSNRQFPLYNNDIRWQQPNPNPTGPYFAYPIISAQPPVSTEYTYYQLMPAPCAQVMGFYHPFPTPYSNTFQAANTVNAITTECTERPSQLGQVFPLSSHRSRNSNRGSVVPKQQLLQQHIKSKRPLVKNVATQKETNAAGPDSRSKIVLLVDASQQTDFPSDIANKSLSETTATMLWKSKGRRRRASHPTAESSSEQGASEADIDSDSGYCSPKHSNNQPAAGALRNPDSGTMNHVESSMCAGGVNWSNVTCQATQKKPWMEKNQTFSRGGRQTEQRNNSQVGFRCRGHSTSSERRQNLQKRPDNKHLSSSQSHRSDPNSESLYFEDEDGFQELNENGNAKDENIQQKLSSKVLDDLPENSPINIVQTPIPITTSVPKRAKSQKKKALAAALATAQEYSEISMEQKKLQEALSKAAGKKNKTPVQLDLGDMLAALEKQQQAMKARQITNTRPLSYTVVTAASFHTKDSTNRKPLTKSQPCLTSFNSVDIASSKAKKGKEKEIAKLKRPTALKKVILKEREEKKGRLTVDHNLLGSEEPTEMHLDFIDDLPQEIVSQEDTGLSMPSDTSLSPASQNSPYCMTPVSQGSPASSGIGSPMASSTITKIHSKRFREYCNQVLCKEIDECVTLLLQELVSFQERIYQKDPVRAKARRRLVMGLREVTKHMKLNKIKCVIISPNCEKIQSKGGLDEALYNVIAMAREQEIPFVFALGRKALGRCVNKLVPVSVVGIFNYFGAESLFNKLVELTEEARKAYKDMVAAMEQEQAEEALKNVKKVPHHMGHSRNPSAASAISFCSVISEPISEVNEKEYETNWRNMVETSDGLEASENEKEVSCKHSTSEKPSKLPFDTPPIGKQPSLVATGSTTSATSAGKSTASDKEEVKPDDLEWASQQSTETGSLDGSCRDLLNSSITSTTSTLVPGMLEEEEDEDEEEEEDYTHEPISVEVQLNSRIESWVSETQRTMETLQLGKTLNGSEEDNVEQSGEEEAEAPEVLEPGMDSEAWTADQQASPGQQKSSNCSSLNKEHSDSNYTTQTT
# UniProt Q96B26, whole entry: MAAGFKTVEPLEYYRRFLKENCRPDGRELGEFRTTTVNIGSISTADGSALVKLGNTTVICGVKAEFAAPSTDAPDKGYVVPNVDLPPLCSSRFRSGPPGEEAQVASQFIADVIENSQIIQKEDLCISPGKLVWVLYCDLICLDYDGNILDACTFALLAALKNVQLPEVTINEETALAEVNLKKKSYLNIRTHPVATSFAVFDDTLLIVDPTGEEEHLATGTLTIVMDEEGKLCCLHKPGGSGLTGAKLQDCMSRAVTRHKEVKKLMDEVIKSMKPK
# UniProt Q96E14: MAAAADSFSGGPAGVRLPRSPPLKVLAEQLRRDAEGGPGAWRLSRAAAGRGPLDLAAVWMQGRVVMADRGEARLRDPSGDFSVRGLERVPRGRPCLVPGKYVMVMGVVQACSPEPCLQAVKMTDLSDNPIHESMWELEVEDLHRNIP
# UniProt Q92968: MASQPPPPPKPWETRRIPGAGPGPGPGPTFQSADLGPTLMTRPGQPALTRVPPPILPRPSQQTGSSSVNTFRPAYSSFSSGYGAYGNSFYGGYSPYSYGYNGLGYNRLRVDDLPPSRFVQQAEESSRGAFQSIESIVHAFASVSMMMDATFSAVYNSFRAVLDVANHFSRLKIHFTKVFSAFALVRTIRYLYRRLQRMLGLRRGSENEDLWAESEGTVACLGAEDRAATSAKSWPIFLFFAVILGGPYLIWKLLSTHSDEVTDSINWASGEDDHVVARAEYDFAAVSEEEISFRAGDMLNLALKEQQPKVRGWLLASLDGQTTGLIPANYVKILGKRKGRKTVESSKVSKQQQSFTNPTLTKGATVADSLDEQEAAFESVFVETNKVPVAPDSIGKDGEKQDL
# UniProt Q96GD0: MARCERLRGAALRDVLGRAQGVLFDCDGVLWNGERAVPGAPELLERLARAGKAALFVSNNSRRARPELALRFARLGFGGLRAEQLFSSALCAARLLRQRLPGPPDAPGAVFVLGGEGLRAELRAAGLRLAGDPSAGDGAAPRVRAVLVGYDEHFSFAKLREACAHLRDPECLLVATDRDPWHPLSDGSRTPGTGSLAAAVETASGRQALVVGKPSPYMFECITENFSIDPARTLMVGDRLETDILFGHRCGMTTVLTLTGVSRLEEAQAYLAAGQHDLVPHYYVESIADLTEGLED
# ± gives the standard deviation of the averaged measurements. Only a part is listed here, and it is no random draw. Small differences around the control level are noise.
# Compound: Nc1ncnc2c1ncn2[C@@H]1O[C@H](COP(=O)(O)OP(=O)(O)NP(=O)(O)O)[C@@H](O)[C@H]1O [adenylyl imidodiphosphate]
# Experiment: NP40-soluble protein abundance relative to vehicle (solubility fold change) (ratio); higher = more soluble protein in presence of AMP-PNP
# Conditions: concentration: 0.5mM
# In short: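 Across three independent experiments, values are fold changes against the detergent-processed vehicle for each replicate, based on vsn-normalised intensities. The samples were Jurkat crude lysate treated with eight concentrations (0.1 to 10 mM) for 10 min at room temperature and then 3 min at 37 °C. Lysate was solubilised with 0.8% NP40 and benzonase, ultracentrifuged, and the supernatant analysed by TMT-labelled LC-MS/MS.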
row,Target,NP40-soluble protein abundance
1,UniProt Q96BW9 and related entries,0.984 ± 0.072
2,Sirt1 (UniProt Q96EB6),1 ± 0.063
3,PTCD3 (UniProt Q96EY7),0.999 ± 0.057
4,UniProt Q96JP5 and related entries,1.05 ± 0.079
5,UniProt Q96K49 and related entries,0.9729 ± 0.0076
6,UniProt Q96AG3 and related entries,1.01 ± 0.017
7,GTF3C6 (UniProt Q969F1),1.03 ± 0.053
8,ZBTB10 (UniProt Q96DT7),0.992 ± 0.039
9,NARS2 (UniProt Q96I59),0.981 ± 0.028
10,PPWD1 (UniProt Q96BP3),0.983 ± 0.057
11,UniProt Q93100 and related entries,0.975 ± 0.11
12,UniProt Q969H8,1.02 ± 0.065
13,UniProt Q92973 and related entries,0.99 ± 0.023
14,PWWP2A (UniProt Q96N64),1.02 ± 0.029
15,UniProt Q93073 and related entries,0.998 ± 0.026
16,IPO9 (UniProt Q96P70),1.01 ± 0.018
17,UniProt Q96PU5 and related entries,1.018 ± 0.007
18,PURB (UniProt Q96QR8),1.01 ± 0.033
19,EXOSC8 (UniProt Q96B26),1.01 ± 0.032
20,RMI2 (UniProt Q96E14),1.03 ± 0.063
21,PEX13 (UniProt Q92968),0.961 ± 0.15
22,UniProt Q96E11 and related entries,0.993 ± 0.06
23,PDXP (UniProt Q96GD0),0.982 ± 0.036

# Single values from the results shown.
# Value for UniProt Q969H8 under NP40-soluble protein abundance: 1.02 ± 0.065
# Value for UniProt Q96JP5 and related entries under NP40-soluble protein abundance: 1.05 ± 0.079
